Experimental data reported in patent publication US20250177292A1, “METHOD FOR TREATMENT OF PARKINSON'S DISEASE” (NeuroDerm, Ltd., priority 2013, published 2025).
For part of these data: At least one compound was matched to its structure with a doubt left. Some entries share one result that the patent states for a list of compounds.

Assays:
[1] = oral, concurrently with levodopa; cited from earlier work
[2] = pH and dissolution of solutions prepared in Example 1; format: physicochemical; settings: concentrations >1%, with other amino acids such as histidine and glutamic acid or in buffers at various pHs

SMILES	Reduction of the levodopa dose required for a clinical response [1]	Dissolution [2]
C[C@@](Cc1ccc(O)c(O)c1)(NN)C(=O)O [CD, carbidopa]	60-80%	–
CCN(CC)C(=O)/C(C#N)=C/c1cc(O)c(O)c([N+](=O)[O-])c1 [E, entacapone]	–	did not dissolve
NC(CO)C(=O)NNCc1ccc(O)c(O)c1O (stereo not drawn) [benserazide]	60-80%	–
